Measurements from PMC4909244.
These are yes or no findings as the source states them, for the method shown. Some entries that bind do so weakly or less than the wild type.

Sequences of proteins named here, by UniProt entry; tags and fusion partners are left off. Residues count along the entry.
UniProt P42799, residues 39-474: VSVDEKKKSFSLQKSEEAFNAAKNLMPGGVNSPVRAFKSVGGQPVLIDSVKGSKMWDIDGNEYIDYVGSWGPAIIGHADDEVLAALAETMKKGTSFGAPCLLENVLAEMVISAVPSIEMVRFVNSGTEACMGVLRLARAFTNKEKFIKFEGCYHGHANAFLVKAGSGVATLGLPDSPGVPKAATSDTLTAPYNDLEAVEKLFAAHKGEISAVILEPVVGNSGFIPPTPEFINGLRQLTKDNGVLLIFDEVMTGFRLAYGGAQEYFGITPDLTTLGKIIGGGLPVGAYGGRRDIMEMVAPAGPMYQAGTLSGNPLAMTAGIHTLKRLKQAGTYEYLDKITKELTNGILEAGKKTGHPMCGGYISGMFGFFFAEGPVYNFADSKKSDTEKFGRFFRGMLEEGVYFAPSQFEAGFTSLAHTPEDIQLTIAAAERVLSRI

Target: Glutamate-1-semialdehyde-2,1-aminomutase from Arabidopsis thaliana (AtGSA1) (Arabidopsis thaliana) (UniProt P42799)
Assay: crystal structure; sitting-drop vapour diffusion at 4°C, 0.15 M potassium bromide, 30%(w/v) PEG 2000 MME; 1.25 Å; dimer in the asymmetric unit; both purified

- binding: binds
Substance: Glutamate-1-semialdehyde-2,1-aminomutase from Arabidopsis thaliana (AtGSA1) (from UniProt P42799 39-474) (enzyme)
